PubChem BioAssay AID1224830 – NIAID, 2016
The whole screen tested about 18,000 reagents; shown is an unselected part. Over the whole deposit, about 2,900 (16%) are marked active. 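Calls are made per well; low scores hint the gene aids the LPS response, high scores that it dampens it.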 Repeated entries: four replicate wells of each siRNA pool. No sequences are given here.

Aim: 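Host factors that control LPS-induced TNF expression in human macrophages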 (primary screen)
Cells: human THP-1 monocytic leukaemia cells, TNF dual-luciferase reporter clone, PMA-differentiated to macrophage-like cells
Reagent: siRNA pool against human genes, 50 nM
Timing: LPS for 4 h, given about 3 days after siRNA transfection
Challenge: bacterial LPS (TLR4 ligand), 10 ng/ml
Detection: 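Ratio of firefly to renilla light, scaled to the plate median and expressed as a robust z-score per replicate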
Reading the numbers: TNF reporter robust z-score: higher = stronger TNF reporter response to LPS
Active means: 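a well is active when its z-score exceeds 2.8 or falls below -1.5; control wells carry no call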

target | TNF reporter robust z-score | activity call
RAB31 | 1.13 | inactive
RAB31 | 1.76 | inactive
RAB31 | 1.91 | inactive
RAB31 | -0.38 | inactive
TGM3 | 2.15 | inactive
TGM3 | 3.06 | active
TGM3 | 2.48 | inactive
TGM3 | 2.78 | inactive
NPM3 | 1.11 | inactive
NPM3 | 1.33 | inactive
NPM3 | 0.89 | inactive
NPM3 | -0.16 | inactive
DBX2 | -1.17 | inactive
DBX2 | -0.81 | inactive
DBX2 | -0.71 | inactive
DBX2 | -0.61 | inactive
PATL1 | -1.54 | active
PATL1 | 0.06 | inactive
PATL1 | 1.04 | inactive
PATL1 | 1 | inactive
CALR3 | 0.45 | inactive
CALR3 | 0.13 | inactive
CALR3 | -0.23 | inactive
CALR3 | 1.01 | inactive
OR11A1 | -0.69 | inactive
OR11A1 | -0.4 | inactive
OR11A1 | 0.52 | inactive
OR11A1 | 0.74 | inactive

Called active, among the entries above:
target | TNF reporter robust z-score | activity call
TGM3 | 3.06 | active
PATL1 | -1.54 | active

Further reagents follow.
target | TNF reporter robust z-score | activity call
POU2AF1 | 0.37 | inactive
POU2AF1 | 0.52 | inactive
POU2AF1 | 1.5 | inactive
POU2AF1 | 1.25 | inactive
SDHAF3 | -0.78 | inactive
SDHAF3 | 0.88 | inactive
SDHAF3 | 0.09 | inactive
SDHAF3 | -0.09 | inactive
ASPG | -0.11 | inactive
ASPG | 0.72 | inactive
ASPG | -1.1 | inactive
ASPG | 1.85 | inactive
UROS | – | inactive
UROS | 0.8 | inactive
UROS | 0.09 | inactive
UROS | 1.78 | inactive
UROS | -0.77 | inactive
